For assay [1], the target named is T1, 3×Flag-labeled Neurog3 overexpressed in Panc-1 cells (UniProt Q9Y4Z2).
T1 sequence: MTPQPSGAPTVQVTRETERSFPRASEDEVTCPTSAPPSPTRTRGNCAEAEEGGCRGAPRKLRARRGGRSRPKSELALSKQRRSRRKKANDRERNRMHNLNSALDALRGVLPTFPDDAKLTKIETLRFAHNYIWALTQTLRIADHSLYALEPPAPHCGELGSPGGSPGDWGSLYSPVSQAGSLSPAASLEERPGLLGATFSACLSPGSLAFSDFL
Description: co-IP; Lysates of OE-NeuroD1-GFP or OE-Neurog3-3×Flag Panc-1 cells; precipitation with the antibody to the tagged protein; partner detected by Western blotting; NETN buffer, Protein A/G agarose, 4 h at 4 °C.

Chains of the proteins cited; added tags and fusions are not shown.
UniProt Q13562: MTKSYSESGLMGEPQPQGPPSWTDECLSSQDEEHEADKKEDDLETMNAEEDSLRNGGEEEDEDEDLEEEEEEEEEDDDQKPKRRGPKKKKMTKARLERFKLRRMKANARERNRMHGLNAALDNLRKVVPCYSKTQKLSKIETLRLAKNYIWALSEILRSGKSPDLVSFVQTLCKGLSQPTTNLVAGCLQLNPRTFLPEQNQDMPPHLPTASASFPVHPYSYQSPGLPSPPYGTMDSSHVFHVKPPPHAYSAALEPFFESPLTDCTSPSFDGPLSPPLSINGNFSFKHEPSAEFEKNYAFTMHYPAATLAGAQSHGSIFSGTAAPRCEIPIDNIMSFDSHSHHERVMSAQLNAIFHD

In assay [2] the target is GFP-labeled NeuroD1 (neurogenic differentiation factor 1) overexpressed in Panc-1 cells (UniProt Q13562). The assay is described as above.

No constants are given. Whether binding was seen depends on the method and setting. In cells and extracts the contact can be indirect. Some binding calls cover weakened binding; strength is not graded here. Tags and fused reporters may be left off the sequences shown.

On to “NeuroD1 in Neurog3-3×Flag-overexpressing Panc-1 cells (from UniProt Q13562 1-356)”, for which the binding result in assay [1] is reported as “binds”.

B1: Neurogenin 3 (Neurog3) in NeuroD1-GFP-overexpressing Panc-1 cells (protein, UniProt Q9Y4Z2 1-214)
chain: MTPQPSGAPTVQVTRETERSFPRASEDEVTCPTSAPPSPTRTRGNCAEAEEGGCRGAPRKLRARRGGRSRPKSELALSKQRRSRRKKANDRERNRMHNLNSALDALRGVLPTFPDDAKLTKIETLRFAHNYIWALTQTLRIADHSLYALEPPAPHCGELGSPGGSPGDWGSLYSPVSQAGSLSPAASLEERPGLLGATFSACLSPGSLAFSDFL
Consider B1, for which, in assay [2], the binding entry is given as “binds”.

The values are drawn from publication PMC12613626.
